Assay results taken from publication PMC10208982, “Structural basis of catalytic activation in human splicing” (Nature, 2023).
No constants are given. Whether binding was seen depends on the method and setting. Binding seen in cells or lysates may run through a third protein. Some entries that bind do so weakly or less than the wild type.

Sequences of proteins named here, by UniProt entry; tags and fusion partners are left off.
UniProt Q9UNP9: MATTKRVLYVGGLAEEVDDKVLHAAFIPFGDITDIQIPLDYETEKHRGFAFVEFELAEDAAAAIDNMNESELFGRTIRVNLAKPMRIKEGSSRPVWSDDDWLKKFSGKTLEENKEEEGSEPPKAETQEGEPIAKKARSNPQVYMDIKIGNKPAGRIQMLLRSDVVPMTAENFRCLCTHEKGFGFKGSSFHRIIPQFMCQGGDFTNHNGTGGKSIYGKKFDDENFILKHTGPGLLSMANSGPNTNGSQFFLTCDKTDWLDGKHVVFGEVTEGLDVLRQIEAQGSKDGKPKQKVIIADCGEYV

T1: Aquarius K829A (human) (UniProt O60306)
T1 sequence: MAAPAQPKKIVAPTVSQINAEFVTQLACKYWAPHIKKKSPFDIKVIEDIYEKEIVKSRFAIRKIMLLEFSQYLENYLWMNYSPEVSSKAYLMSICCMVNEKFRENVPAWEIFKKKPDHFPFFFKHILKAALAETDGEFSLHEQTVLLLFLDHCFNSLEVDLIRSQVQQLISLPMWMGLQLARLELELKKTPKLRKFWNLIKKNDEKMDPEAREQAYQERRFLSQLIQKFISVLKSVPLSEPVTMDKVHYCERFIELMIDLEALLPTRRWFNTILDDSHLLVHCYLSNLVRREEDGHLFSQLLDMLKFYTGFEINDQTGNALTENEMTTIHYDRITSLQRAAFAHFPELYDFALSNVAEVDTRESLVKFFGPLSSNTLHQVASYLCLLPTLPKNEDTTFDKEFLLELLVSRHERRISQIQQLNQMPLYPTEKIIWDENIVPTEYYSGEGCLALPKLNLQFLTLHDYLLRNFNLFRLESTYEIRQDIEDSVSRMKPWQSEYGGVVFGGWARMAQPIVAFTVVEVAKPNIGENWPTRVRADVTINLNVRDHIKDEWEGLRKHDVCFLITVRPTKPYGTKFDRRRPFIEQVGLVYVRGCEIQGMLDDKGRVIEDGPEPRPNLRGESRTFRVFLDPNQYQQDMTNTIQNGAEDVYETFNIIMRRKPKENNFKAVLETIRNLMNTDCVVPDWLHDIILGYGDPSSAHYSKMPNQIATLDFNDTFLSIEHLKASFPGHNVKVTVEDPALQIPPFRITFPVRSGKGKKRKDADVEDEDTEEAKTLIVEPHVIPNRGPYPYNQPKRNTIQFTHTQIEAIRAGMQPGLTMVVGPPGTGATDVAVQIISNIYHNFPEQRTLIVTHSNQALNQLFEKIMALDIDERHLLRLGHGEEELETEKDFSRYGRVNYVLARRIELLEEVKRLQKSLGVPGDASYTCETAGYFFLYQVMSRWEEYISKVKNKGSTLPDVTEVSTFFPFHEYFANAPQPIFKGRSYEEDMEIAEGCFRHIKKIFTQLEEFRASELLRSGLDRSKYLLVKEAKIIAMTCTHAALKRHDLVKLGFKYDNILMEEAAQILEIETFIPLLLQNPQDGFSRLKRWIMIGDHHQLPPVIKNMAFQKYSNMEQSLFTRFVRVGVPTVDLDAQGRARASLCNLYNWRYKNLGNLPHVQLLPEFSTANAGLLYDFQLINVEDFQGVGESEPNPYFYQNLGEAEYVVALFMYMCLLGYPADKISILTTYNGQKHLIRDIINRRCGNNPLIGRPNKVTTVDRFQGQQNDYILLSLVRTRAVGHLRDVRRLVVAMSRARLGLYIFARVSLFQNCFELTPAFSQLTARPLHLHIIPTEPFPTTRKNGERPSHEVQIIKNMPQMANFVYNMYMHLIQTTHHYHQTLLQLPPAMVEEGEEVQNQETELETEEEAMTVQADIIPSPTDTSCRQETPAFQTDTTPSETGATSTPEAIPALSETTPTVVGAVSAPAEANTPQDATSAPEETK

T2: Aquarius (wild type) (human) (UniProt O60306)
T2 sequence: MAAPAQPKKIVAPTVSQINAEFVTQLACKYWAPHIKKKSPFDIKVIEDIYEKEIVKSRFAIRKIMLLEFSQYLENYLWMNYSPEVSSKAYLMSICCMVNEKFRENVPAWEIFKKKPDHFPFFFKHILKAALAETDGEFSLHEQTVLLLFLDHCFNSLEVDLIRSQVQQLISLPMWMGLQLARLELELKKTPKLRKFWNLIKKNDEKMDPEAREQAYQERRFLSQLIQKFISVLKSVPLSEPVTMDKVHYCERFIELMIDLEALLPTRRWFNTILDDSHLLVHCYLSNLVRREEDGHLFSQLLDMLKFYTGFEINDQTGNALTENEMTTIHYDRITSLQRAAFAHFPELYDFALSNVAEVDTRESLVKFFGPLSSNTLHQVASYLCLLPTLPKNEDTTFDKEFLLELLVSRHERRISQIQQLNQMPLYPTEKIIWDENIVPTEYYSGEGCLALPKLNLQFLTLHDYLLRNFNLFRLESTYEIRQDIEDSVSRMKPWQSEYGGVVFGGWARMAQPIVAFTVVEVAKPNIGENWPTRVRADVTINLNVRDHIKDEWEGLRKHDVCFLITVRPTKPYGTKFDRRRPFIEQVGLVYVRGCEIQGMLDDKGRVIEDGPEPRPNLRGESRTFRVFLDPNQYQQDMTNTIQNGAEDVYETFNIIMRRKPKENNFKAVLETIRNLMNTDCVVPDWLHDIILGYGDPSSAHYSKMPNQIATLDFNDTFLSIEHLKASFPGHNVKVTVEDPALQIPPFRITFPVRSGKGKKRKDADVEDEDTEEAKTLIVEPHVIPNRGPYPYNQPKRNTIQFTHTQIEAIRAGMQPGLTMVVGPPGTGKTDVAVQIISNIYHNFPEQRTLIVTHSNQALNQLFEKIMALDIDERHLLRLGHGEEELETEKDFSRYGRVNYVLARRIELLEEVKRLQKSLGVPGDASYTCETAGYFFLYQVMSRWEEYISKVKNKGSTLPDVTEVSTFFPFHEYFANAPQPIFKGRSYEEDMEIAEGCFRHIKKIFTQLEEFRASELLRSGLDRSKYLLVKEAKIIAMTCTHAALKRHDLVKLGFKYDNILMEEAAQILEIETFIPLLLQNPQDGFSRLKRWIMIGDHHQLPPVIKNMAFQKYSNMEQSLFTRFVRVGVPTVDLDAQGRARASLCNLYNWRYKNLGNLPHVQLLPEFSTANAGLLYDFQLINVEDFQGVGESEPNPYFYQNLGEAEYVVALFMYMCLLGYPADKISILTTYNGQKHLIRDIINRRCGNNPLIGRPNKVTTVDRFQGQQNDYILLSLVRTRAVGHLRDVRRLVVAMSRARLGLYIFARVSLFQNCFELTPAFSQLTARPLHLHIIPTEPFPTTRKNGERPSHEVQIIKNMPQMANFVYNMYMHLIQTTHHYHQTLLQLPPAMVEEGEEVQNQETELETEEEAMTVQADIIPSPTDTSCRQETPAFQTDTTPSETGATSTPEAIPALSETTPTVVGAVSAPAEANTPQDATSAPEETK

B1: SYF1 (protein, UniProt Q9HCS7 1-855)
chain: MVVMARLSRPERPDLVFEEEDLPYEEEIMRNQFSVKCWLRYIEFKQGAPKPRLNQLYERALKLLPCSYKLWYRYLKARRAQVKHRCVTDPAYEDVNNCHERAFVFMHKMPRLWLDYCQFLMDQGRVTHTRRTFDRALRALPITQHSRIWPLYLRFLRSHPLPETAVRGYRRFLKLSPESAEEYIEYLKSSDRLDEAAQRLATVVNDERFVSKAGKSNYQLWHELCDLISQNPDKVQSLNVDAIIRGGLTRFTDQLGKLWCSLADYYIRSGHFEKARDVYEEAIRTVMTVRDFTQVFDSYAQFEESMIAAKMETASELGREEEDDVDLELRLARFEQLISRRPLLLNSVLLRQNPHHVHEWHKRVALHQGRPREIINTYTEAVQTVDPFKATGKPHTLWVAFAKFYEDNGQLDDARVILEKATKVNFKQVDDLASVWCQCGELELRHENYDEALRLLRKATALPARRAEYFDGSEPVQNRVYKSLKVWSMLADLEESLGTFQSTKAVYDRILDLRIATPQIVINYAMFLEEHKYFEESFKAYERGISLFKWPNVSDIWSTYLTKFIARYGGRKLERARDLFEQALDGCPPKYAKTLYLLYAQLEEEWGLARHAMAVYERATRAVEPAQQYDMFNIYIKRAAEIYGVTHTRGIYQKAIEVLSDEHAREMCLRFADMECKLGEIDRARAIYSFCSQICDPRTTGAFWQTWKDFEVRHGNEDTIKEMLRIRRSVQATYNTQVNFMASQMLKVSGSATGTVSDLAPGQSGMDDMKLLEQRAEQLAAEAERDQPLRAQSKILFVRSDASREELAELAQQVNPEEIQLGEDEDEDEMDLEPNEVRLEQQSVPAAVFGSLKED
B2: ISY1 (protein, UniProt Q9ULR0 1-285)
chain: MARNAEKAMTALARFRQAQLEEGKVKERRPFLASECTELPKAEKWRRQIIGEISKKVAQIQNAGLGEFRIRDLNDEINKLLREKGHWEVRIKELGGPDYGKVGPKMLDHEGKEVPGNRGYKYFGAAKDLPGVRELFEKEPLPPPRKTRAELMKAIDFEYYGYLDEDDGVIVPLEQEYEKKLRAELVEKWKAEREARLARGEKEEEEEEEEEINIYAVTEEESDEEGSQEKGGDDSQQKFIAHVPVPSQQEIEEALVRRKKMELLQKYASETLQAQSEEARRLLGY
B3: CCDC16 (protein, UniProt Q96NB3 1-372)
chain: MASSASARTPAGKRVINQEELRRLMKEKQRLSTSRKRIESPFAKYNRLGQLSCALCNTPVKSELLWQTHVLGKQHREKVAELKGAKEASQGSSASSAPHSVKRKAPDADDQDVKRAKATLVPQVQPSTSAWTTNFDKIGKEFIRATPSKPSGLSLLPDYEDEEEEEEEEEGDGERKRGDASKPLSDAQGKEHSVSSSREVTSSVLPNDFFSTNPPKAPIIPHSGSIEKAEIHEKVVERRENTAEALPEGFFDDPEVDARVRKVDAPKDQMDKEWDEFQKAMRQVNTISEAIVAEEDEEGRLDRQIGEIDEQIECYRRVEKLRNRQDEIKNKLKEILTIKELQKKEEENADSDDEGELQDLLSQDWRVKGALL

Key:
Aquarius K829A (human) = molecular target: T1, Aquarius K829A (human); assay: pull-down; C-terminally 8×His-tagged Aquarius (wild type or K829A) co-expressed with the untagged ΔISCC complex in High Five cells; HisTrap Ni(II) column (400 mM NaCl lysis buffer), imidazole gradient, then Q Sepharose; peak fractions of stoichiometric IBC
[1] = molecular target: T2, Aquarius (wild type) (human); assay: as above

Molecule | binding (Aquarius K829A (human)) | binding [1]
PPIE (from UniProt Q9UNP9 1-301) (enzyme) | binds | binds
B1 | binds | binds
B2 | binds | binds
B3 | binds | binds
